The values that follow come from article PMC5996148.

Some of the results follow. For some of these results: Construct or isoform of the protein are uncertain.

Test systems include TRIM11 (human); TRIM23 (human); TRIM32 (human); TRIM44 (human); TRIM62 (human); TRIM63 (human); TRMT1 (human).
What all share (assay): protein microarray (ProtoArray v5.0), streptavidin-Alexa Fluor 647
What all share (conditions): 3'-biotin; 20 mM Tris (pH 7.5), 5 mM MgCl2, 100 mM KCl, 0.1% Tween-20, A/T-rich and random oligonucleotide blockers; temperature not stated; high values mean tight binding

For a further experiment, the target named is T1, TRIM31 (UniProt Q9BZY9).
T1 sequence: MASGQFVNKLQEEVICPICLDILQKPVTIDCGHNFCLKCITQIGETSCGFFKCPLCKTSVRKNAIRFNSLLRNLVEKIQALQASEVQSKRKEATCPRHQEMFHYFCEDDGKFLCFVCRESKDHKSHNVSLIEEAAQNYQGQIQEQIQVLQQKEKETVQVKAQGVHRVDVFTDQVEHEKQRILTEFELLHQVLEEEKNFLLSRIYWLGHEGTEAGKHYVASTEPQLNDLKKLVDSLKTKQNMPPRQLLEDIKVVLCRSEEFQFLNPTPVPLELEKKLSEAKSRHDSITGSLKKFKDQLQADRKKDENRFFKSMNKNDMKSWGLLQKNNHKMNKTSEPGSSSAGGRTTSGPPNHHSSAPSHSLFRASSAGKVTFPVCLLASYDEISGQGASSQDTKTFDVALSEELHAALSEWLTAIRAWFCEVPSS

The target of the next experiment is T2, TRIM69 (UniProt Q86WT6).
T2 sequence: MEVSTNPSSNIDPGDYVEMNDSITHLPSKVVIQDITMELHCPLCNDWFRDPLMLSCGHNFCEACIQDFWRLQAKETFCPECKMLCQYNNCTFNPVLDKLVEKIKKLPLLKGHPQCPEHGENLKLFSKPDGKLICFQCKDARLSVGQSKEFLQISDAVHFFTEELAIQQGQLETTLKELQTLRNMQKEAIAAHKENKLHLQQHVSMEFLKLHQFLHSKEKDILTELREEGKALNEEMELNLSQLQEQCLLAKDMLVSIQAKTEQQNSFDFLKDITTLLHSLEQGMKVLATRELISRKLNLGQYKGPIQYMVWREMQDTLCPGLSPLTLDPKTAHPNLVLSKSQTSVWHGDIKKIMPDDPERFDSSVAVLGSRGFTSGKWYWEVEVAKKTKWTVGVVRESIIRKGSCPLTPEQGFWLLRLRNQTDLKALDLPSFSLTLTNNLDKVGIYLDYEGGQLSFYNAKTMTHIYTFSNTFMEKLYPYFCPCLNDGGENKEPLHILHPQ

The target of a further experiment is T3, TRIML1 (UniProt Q8N9V2).
T3 sequence: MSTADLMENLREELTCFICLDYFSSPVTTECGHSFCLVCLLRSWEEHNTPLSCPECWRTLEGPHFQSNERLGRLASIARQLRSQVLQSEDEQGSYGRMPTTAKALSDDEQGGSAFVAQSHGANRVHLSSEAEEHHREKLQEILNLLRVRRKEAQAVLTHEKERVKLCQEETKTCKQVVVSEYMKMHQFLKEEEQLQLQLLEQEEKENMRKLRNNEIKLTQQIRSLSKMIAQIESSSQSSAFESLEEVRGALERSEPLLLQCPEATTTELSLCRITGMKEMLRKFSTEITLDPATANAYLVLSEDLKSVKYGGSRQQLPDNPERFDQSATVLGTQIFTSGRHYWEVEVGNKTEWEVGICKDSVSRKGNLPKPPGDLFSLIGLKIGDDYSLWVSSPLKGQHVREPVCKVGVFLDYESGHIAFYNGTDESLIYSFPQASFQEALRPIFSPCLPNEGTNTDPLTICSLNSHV

With “GGGAGGCTGAGGCAGG [G4-1 biotinylated (PQS2)]”, the binding signal was -0.358 z-score in the experiment with TRIM11 (human); -0.297 z-score with TRIM23 (human); -0.321 z-score with TRIM31; -0.341 z-score with TRIM32 (human); -0.367 z-score with TRIM44 (human); -0.287 z-score in the experiment with TRIM62 (human). Further, the binding signal was -0.357 z-score in the experiment on TRIM63 (human), -0.331 z-score with TRIM69, -0.285 z-score in the experiment with TRIML1 and -0.267 z-score in the experiment with TRMT1 (human).
